Values from PubChem BioAssay AID1259308 (NCATS, 2017)
In all, the deposit lists about 59,000 reagents; this is an unselected part. About 1,510 of all reagents (2.6%) were called active. 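Calls use total luciferase alone and ignore viability, so some active siRNAs may act by altering cell number.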 Unmarked entries are inactive. No sequences are given here.

- Test: 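Candidate targets for better recombinant protein yield in mammalian cells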 (primary screen)
- Cells: human HEK293 embryonic kidney cells stably expressing firefly luciferase (HEK-CMV-Luc2-Hygro)
- Reagent: single siRNA against human genes, 0.8 pmol siRNA per well
- Duration: 72 h
- Read-out: 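Luciferase light (ONE-Glo) measured on one replicate plate set and viability (CellTiter-Glo) on the other, scaled to a negative control siRNA, with robust z-scores and luciferase per cell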
- Scale: total luciferase, z-score and total luciferase, % of control: higher = more reporter protein produced; luciferase per cell, z-score: higher = more reporter output per viable cell; viable cells, % of control: higher = more viable cells
- Call rule: 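An siRNA counts as active if its total luciferase robust z-score exceeds 3; genes with two or more such siRNAs out of three were retested with fresh siRNAs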
- Meaning of the calls: active = raised luciferase; inactive = no rise

gene,PubChem SID,"total luciferase, z-score","total luciferase, % of control","luciferase per cell, z-score","viable cells, % of control"
ACSM5 (GeneID 54988),SID160742680,3.17 (active),145,4.89,44.6
ACSM5 (GeneID 54988),SID160742682,0.521,92.2,0.619,87.6
ACSM5 (GeneID 54988),SID160742683,0.21,86.1,0.0752,94.3
LINC03034 (GeneID 283710),SID160763023,-1.8,46.1,-1.95,86.1
LINC03034 (GeneID 283710),SID160763024,-0.733,67.3,-0.603,88.1
LINC03034 (GeneID 283710),SID160763025,0.789,97.6,0.918,85.6
SLC26A8 (GeneID 116369),SID160755402,0.0131,82.1,-0.341,100
SLC26A8 (GeneID 116369),SID160755403,1.11,104,0.379,105
SLC26A8 (GeneID 116369),SID160755404,-0.484,72.3,-0.346,88.5
HMGN4 (GeneID 10473),SID160728511,-0.919,63.6,-0.679,85
HMGN4 (GeneID 10473),SID160728512,0.296,87.8,0.0737,96.2
HMGN4 (GeneID 10473),SID160728513,-0.11,79.7,0.175,85.1
ZCCHC2 (GeneID 54877),SID160742387,-0.112,79.7,1.15,65.8
ZCCHC2 (GeneID 54877),SID160742388,1.45,111,0.916,97.1
ZCCHC2 (GeneID 54877),SID160742389,0.501,91.9,-0.359,113
AIMP2 (GeneID 7965),SID160719511,2.27,127,2.75,68.7
AIMP2 (GeneID 7965),SID160719512,1.13,104,0.733,96.1
AIMP2 (GeneID 7965),SID160719513,1.57,113,1.52,84.6

Entries above called active (1):
gene,PubChem SID,"total luciferase, z-score","total luciferase, % of control","luciferase per cell, z-score","viable cells, % of control"
ACSM5 (GeneID 54988),SID160742680,3.17 (active),145,4.89,44.6

The results go on:
gene,PubChem SID,"total luciferase, z-score","total luciferase, % of control","luciferase per cell, z-score","viable cells, % of control"
PCED1A (GeneID 64773),SID160747952,0.94,101,2.15,63.9
PCED1A (GeneID 64773),SID160747953,-0.0251,81.4,-0.545,105
PCED1A (GeneID 64773),SID160747954,-0.511,71.7,-0.887,101
AP5B1 (GeneID 91056),SID160753881,-2.15,39.2,-0.867,55
AP5B1 (GeneID 91056),SID160753882,2.97,141,1.84,97.1
AP5B1 (GeneID 91056),SID160753883,0.775,97.3,0.297,101
PRRG3 (GeneID 79057),SID160734924,1.14,105,0.61,99.5
PRRG3 (GeneID 79057),SID160748554,0.0645,83.2,0.311,85.6
PRRG3 (GeneID 79057),SID160748555,0.295,87.8,-0.00507,98.2
GPLD1 (GeneID 2822),SID160730994,2.27,127,2.04,83.1
GPLD1 (GeneID 2822),SID160772866,-0.397,74,-0.681,98.9
GPLD1 (GeneID 2822),SID160772884,-0.38,74.3,-0.658,98.8
NAT9 (GeneID 26151),SID160730920,-0.382,74.3,0.116,80.5
NAT9 (GeneID 26151),SID160737707,-0.0495,80.9,1.02,69.2
NAT9 (GeneID 26151),SID160737708,-0.954,62.9,0.18,67
TAX1BP3 (GeneID 30851),SID160739565,-1.21,57.8,-0.682,77.3
TAX1BP3 (GeneID 30851),SID160739566,-1.42,53.6,-0.847,74.8
TAX1BP3 (GeneID 30851),SID160739567,0.267,87.2,0.45,86.6
MCTP2 (GeneID 55784),SID160733626,0.337,88.6,0.871,78.7
MCTP2 (GeneID 55784),SID160744351,-0.225,77.4,0.455,76.7
MCTP2 (GeneID 55784),SID160744352,0.475,91.3,-0.148,106
